PubChem BioAssay AID743454 | Peter MacCallum Cancer Centre – 2014
Shown is one part, drawn at random, of about 18,000 reagents. Over the whole deposit, 450 (2.5%) got an active call. 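Single biological run; no consistent viability z cut-off exists, so the class columns, not z-scores, define the calls.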

Purpose: 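Genes whose loss kills vorinostat-resistant colon cancer cells under vorinostat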 (primary screen)
Cells: human HCT116-VR colon cancer cells, selected for vorinostat resistance
Reagents: siRNA pool against human genes, 40 nM siRNA pool
Time to read-out: vorinostat for 24 h, read-out about 72 h after transfection
Conditions: vorinostat at 2.5 µM final
Read-out: 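Two measures, CellTiter-Fluor viability and luminescent caspase 3/7 activity, each as fold change against same-plate mock wells, mean of duplicates, then screen-wide robust z-score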
Reading the numbers: viability robust z-score: higher = more viable cells than screen typical; caspase robust z-score: higher = more caspase 3/7 activity than screen typical
Active means: 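Hits are knock-downs in viability class RV1/RV2 or caspase class CA1/CA2, excluding ones that killed cells in the no-drug cell-count arm; hits then retested with single siRNAs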

Target gene | viability hit class | caspase hit class | viability robust z-score | caspase robust z-score | Call
OR5B17 (GeneID 219965) | no change | no change | -0.6 | -0.08 | inactive
YJU2B (GeneID 81576) | no change | CA1 (caspase activation) | -0.26 | 5.21 | active
LIPJ (GeneID 142910) | no change | no change | 0.32 | 0.3 | inactive
ZNF230 (GeneID 7773) | no change | no change | -0.07 | -1.12 | inactive
KRT71 (GeneID 112802) | no change | no change | -0.57 | -0.83 | inactive
C15orf32 (GeneID 145858) | no change | no change | 0.72 | 0.01 | inactive
LETM2 (GeneID 137994) | no change | no change | 0.41 | 0.08 | inactive
RNF144A (GeneID 9781) | no change | no change | 1.17 | -0.08 | inactive
PANK4 (GeneID 55229) | no change | no change | -2.69 | -0.57 | inactive
PLAGL1 (GeneID 5325) | no change | no change | -0.7 | 3.15 | inactive
TMT1B (GeneID 196410) | no change | no change | 1.05 | 2.56 | inactive
RABL2A (GeneID 11159) | no change | no change | -0.74 | 0.58 | inactive
PLEK (GeneID 5341) | no change | no change | 0.06 | -1.06 | inactive
PPEF2 (GeneID 5470) | no change | no change | -0.93 | -0.49 | inactive
RMND5B (GeneID 64777) | no change | no change | -0.36 | 0.45 | inactive
MORC2 (GeneID 22880) | no change | no change | 1.67 | 0.51 | inactive
ZNF559 (GeneID 84527) | no change | no change | 1.94 | 1.21 | inactive
SMO (GeneID 6608) | no change | no change | 1.44 | -0.77 | inactive
GGPS1 (GeneID 9453) | no change | no change | 0.03 | -0.66 | inactive
INAVA (GeneID 55765) | no change | no change | -1.14 | -0.8 | inactive
CREB3L4 (GeneID 148327) | no change | no change | -0.17 | -0.84 | inactive
NPIPA1 (GeneID 9284) | no change | no change | 0.32 | -0.92 | inactive
DLG5 (GeneID 9231) | no change | no change | -0.88 | 4.15 | inactive
CISD1 (GeneID 55847) | no change | no change | 0.29 | 0.84 | inactive
LGI2 (GeneID 55203) | no change | no change | 0.02 | -0.82 | inactive
ZNF248 (GeneID 57209) | no change | no change | -0.18 | 0.08 | inactive
XPO5 (GeneID 57510) | no change | no change | -0.2 | -0.09 | inactive
CRISPLD2 (GeneID 83716) | no change | no change | 0.16 | -0.92 | inactive
OR8U9 (GeneID 504190) | no change | no change | -2.13 | 0.5 | inactive
VAV2 (GeneID 7410) | no change | no change | 0.61 | -0.02 | inactive
ORC2 (GeneID 4999) | no change | no change | 0.36 | -0.92 | inactive
TLR9 (GeneID 54106) | no change | no change | -0.66 | -0.96 | inactive
GPR158 (GeneID 57512) | no change | no change | 0.5 | 0.28 | inactive
HLA-DRB3 (GeneID 3125) | no change | no change | -3.27 | 2.43 | inactive
SAMD15 (GeneID 161394) | no change | no change | 1.25 | 2.02 | inactive
CLDN5 (GeneID 7122) | no change | no change | -1.02 | 0.18 | inactive
DBI (GeneID 1622) | no change | no change | -1.64 | -0.52 | inactive
MTERF4 (GeneID 130916) | no change | no change | -2.06 | 4.3 | inactive

Reprinted from the entries so far for reference:
Target gene | viability hit class | caspase hit class | viability robust z-score | caspase robust z-score | Call
CISD1 (GeneID 55847) | no change | no change | 0.29 | 0.84 | inactive
LGI2 (GeneID 55203) | no change | no change | 0.02 | -0.82 | inactive
ZNF248 (GeneID 57209) | no change | no change | -0.18 | 0.08 | inactive
XPO5 (GeneID 57510) | no change | no change | -0.2 | -0.09 | inactive
CRISPLD2 (GeneID 83716) | no change | no change | 0.16 | -0.92 | inactive
OR8U9 (GeneID 504190) | no change | no change | -2.13 | 0.5 | inactive

Further records follow.
Target gene | viability hit class | caspase hit class | viability robust z-score | caspase robust z-score | Call
MORC3 (GeneID 23515) | no change | no change | -0.04 | 1.02 | inactive
YPEL5 (GeneID 51646) | no change | no change | -0.01 | 2.53 | inactive
PRKRIP1 (GeneID 79706) | no change | no change | 1.44 | -0.35 | inactive
OTUD6A (GeneID 139562) | no change | no change | 0.89 | -0.43 | inactive
GON4L (GeneID 54856) | no change | no change | -1.27 | -1.15 | inactive
NUDC (GeneID 10726) | no change | no change | -0.13 | 2.79 | inactive
ARAP1 (GeneID 116985) | no change | no change | -0.32 | -0.05 | inactive
SPATA2 (GeneID 9825) | no change | no change | -0.73 | 0.5 | inactive
ZXDA (GeneID 7789) | no change | no change | 0.44 | 0.91 | inactive
TMEM63C (GeneID 57156) | no change | no change | -0.92 | 0.88 | inactive
ZNF555 (GeneID 148254) | no change | no change | 0.82 | -0.58 | inactive
EMC2 (GeneID 9694) | no change | no change | -0.34 | -0.02 | inactive
SPRR1B (GeneID 6699) | no change | no change | -1.56 | 1.66 | inactive
SPAG16 (GeneID 79582) | no change | no change | -0.22 | 2.62 | inactive
ZC2HC1C (GeneID 79696) | no change | no change | 1.33 | 1.28 | inactive
RAPGEF1 (GeneID 2889) | no change | no change | -0.26 | -0.7 | inactive
FBN2 (GeneID 2201) | no change | no change | -0.36 | -1.23 | inactive
ZNF217 (GeneID 7764) | no change | no change | 0.15 | 1.96 | inactive
FKBP8 (GeneID 23770) | no change | no change | -1.01 | 1.89 | inactive
